Reference: article PMC10981688
No constants are given. Whether binding was seen depends on the method and setting. A result given as binding can be weak or reduced; the word gives no strength. For some of these results: In cells and extracts the contact can be indirect.

Protein sequences, listed by entry. Tags and fused reporters are not part of them. Residues count along the entry.
UniProt Q01518: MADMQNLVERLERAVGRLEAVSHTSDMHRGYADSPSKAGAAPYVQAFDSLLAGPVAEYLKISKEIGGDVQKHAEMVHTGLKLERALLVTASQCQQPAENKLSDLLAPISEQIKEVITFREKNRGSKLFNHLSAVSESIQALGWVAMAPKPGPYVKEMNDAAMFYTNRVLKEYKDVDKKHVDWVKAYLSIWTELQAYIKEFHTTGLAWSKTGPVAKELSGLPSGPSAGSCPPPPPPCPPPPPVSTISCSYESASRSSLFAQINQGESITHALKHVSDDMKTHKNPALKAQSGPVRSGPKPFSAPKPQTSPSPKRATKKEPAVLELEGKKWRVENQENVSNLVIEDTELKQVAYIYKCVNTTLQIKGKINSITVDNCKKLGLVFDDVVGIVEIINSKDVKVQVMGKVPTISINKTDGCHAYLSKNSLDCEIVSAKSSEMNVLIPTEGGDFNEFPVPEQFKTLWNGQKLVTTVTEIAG
UniProt O00206, residues 24-839: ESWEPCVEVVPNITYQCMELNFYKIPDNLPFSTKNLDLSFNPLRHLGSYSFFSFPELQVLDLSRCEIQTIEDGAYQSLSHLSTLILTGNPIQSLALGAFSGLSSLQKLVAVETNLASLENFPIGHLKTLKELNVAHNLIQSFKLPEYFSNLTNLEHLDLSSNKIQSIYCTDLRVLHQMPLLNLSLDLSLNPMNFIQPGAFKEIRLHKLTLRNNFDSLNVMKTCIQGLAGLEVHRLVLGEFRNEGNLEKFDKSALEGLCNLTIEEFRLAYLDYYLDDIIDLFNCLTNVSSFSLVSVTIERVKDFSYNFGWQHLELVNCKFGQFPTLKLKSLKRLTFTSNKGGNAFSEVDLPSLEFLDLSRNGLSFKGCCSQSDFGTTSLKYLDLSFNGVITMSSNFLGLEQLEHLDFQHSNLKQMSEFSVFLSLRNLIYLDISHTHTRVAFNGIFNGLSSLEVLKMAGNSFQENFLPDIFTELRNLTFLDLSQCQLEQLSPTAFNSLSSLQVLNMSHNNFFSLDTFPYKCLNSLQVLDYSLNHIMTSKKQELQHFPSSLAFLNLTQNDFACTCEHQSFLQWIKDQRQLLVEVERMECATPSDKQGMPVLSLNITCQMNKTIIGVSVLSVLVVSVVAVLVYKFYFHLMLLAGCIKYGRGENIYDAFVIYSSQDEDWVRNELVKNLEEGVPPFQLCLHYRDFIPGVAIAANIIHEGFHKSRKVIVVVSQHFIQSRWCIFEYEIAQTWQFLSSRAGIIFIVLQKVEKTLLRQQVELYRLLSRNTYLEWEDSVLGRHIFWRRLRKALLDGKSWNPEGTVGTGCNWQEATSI

Columns and labels:
[1] = biological target: CAP1, endogenous in THP-1 monocytes (human (endogenous in THP-1)) (UniProt Q01518); assay: proximity ligation; Duolink proximity ligation assay in THP-1 cells with primary antibodies against PCSK9, CAP1 or TLR4; cells treated with CTRL, TLR4, LOX1 or CAP1 siRNA; red dots per cell counted
[2] = biological target: TLR4, endogenous in THP-1 monocytes (human (endogenous in THP-1)) (UniProt O00206); assay: as above
[3] = biological target: CAP1, endogenous in THP-1 monocytes (human (endogenous in THP-1)) (UniProt Q01518); assay: co-IP; immunoprecipitation of endogenous proteins from THP-1 lysates (CAP1 and PCSK9 antibodies; CAP1, Syk and PKCδ), immunoblot
[4] = biological target: CAP1-hFc, a fusion of human CAP1 with the Fc region of human immunoglobulin (human) (UniProt Q01518); assay: ELISA; competitive ELISA; 96-well plate coated with human Fc-CAP1, 160 µM 6x His-PCSK9 with 10 or 50 µM IgG, evolocumab or hFc-CAP1, 2 h at room temperature; detection with anti-6x His-HRP; both purified

binding [1] | binding [2] | binding [3] | binding [4] | Substance
binds | binds | binds |  | PCSK9, endogenous in THP-1 monocytes (from UniProt Q8NBP7)
 |  |  | binds | recombinant human PCSK9 with 6x His tag (proprotein convertase subtilisin/kexin type-9) (from UniProt Q8NBP7)
